From PubChem BioAssay AID2417 (National Center for Advancing Translational Sciences (NCATS), 2010)
The whole screen tested about 140,000 compounds, of which about 4,300 (3.1%) were called active. The shares of active, inactive and inconclusive entries below differ from those in the screen.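 How the source made its calls: active means readout at or below -70, meaning at least 70% loss of cells showing the perinucleolar compartment, a nuclear body marking cancer cells; inconclusive means readout between -30 and a set limit; inactive means the rest.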

Experiment: High Content Assay for Compounds that inhibit the Assembly of the Perinucleolar Compartment;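 further: plate controls were DMSO wells for no effect and camptothecin positive control wells for full effect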
Settings: PC3M PTB-GFP, PNC prevalence imaging, 16 h; at 10 µM; stronger effect = lower value
Outline: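 PC3M cells stably expressing PTB-GFP, 750–1000 cells/well, treated 16 h at 37 °C with compound (23 nl of library stock), in duplicate. After paraformaldehyde fixation and Hoechst stain, imaged at 20x; PNC prevalence scored by image analysis.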

| SMILES | activity change (PNC), negative = inhibition |
| --- | --- |
| COc1ccc(OC)c(/C=N/NC(=O)c2cc3c(OC)c(OC)ccc3[nH]2)c1 | active: -112% |
| Cc1ccccc1NC(=O)C1CC(=O)N(c2ccccc2F)C1 (configuration not stated) | inconclusive: -41.1% |
| Cc1cc(/C=C(\C#N)C(=O)Nc2ccc(Cl)cc2)c(C)n1-c1ccc(N2CCOCC2)c([N+](=O)[O-])c1 | inconclusive: -50.4% |
| COC(=O)/C(=C/c1ccc2c(c1)c1ccccc1n2C)NC(=O)c1ccccc1 | inconclusive: -41.2% |
| O=C(CSc1nnc(-c2cnccn2)n1Cc1ccco1)c1ccc(Cl)cc1 | inconclusive: -53.1% |
| CCOc1cnc(-c2ccc(Cl)cc2)o1 | inconclusive: -46.6% |
| COc1ccccc1-c1nc(-c2ccc(Br)o2)no1 | inconclusive: -40% |
| O=C(O)COc1cccc(NC(=O)C2CCCO2)c1 (configuration not stated) | inconclusive: -50.7% |
| O=S(=O)(Cc1ccc(Cl)cc1)N1CCCC1 | inconclusive: -33.2% |
| CCCCC(=O)Nc1nnn(CCC)n1 | inactive: 24% |
| CCOc1ccc(C(=O)N/N=C(\c2ccccc2)c2ccccn2)cc1 | inconclusive: -31.7% |
| CCOc1c2ccc(C(=O)NCc3ccc(C(F)(F)F)cc3C(F)(F)F)cc2nn1C | inconclusive: -36% |
| Cn1c(=O)c2c(nc(SCCN3CCCCC3)n2Cc2ccc(Cl)cc2)n(C)c1=O | inconclusive: -49.8% |
| CCN(CC)CCNC(=O)c1cc(Sc2nnc(C)s2)nc2ccccc12 | inactive: -22.4% |
| Cc1cccc(C(=O)NNC2=C(C(=O)C(F)(F)F)CCC2)c1O | inactive: 65.1% |
| Nn1c(SCC(=O)Nc2ccccc2F)nc2ccccc2c1=O | inconclusive: -33% |
| CC1CCCCN1Cc1c(C#N)c2ccccc2n1C (configuration not stated) | inconclusive: -38.8% |
| COc1ccnc(Oc2ccc(C)cc2)c1C#N | inconclusive: -59% |
| Cc1c2cnn(CC(=O)O)c(=O)c2c(C)n1Cc1ccccc1 | inconclusive: -58% |
| O=C(Cc1cccs1)Nc1nnc(-c2ccncc2)s1 | inconclusive: -65.8% |
| Cc1cc(C(F)(F)F)n2nc(C(=O)O)c(Cl)c2n1 | active: -89.8% |
| CC1=NNC(=O)C1C(c1ccccc1)C(C#N)C#N (configuration not stated) | inconclusive: -35.7% |
| CCOC(=O)c1c(C)[nH]c(N=Nc2ccccc2C)c1C | inconclusive: -38.9% |

| SMILES | activity change (PNC), negative = inhibition |
| --- | --- |
| C=CCSc1nnc2n(-c3ccccc3OC)c(=O)c3c4c(sc3n12)CCC4 | inconclusive: -46.2% |
| COc1ccc(C(=O)n2cc(C(=O)c3cc(C)ccc3O)cn2)cc1 | inconclusive: -49.5% |
| C=CCn1c(CNC(=O)c2cccs2)nnc1SCC(=O)Nc1ccc(C(=O)O)cc1 | inconclusive: -54.6% |
| CCOc1ccc(CNC(=O)c2cc3oc4ccccc4c3n2C)cc1 | inconclusive: -30.8% |
| CC(=O)Nc1ccc(NC(=O)c2c(C)nc3ccccn23)cc1 | inactive: -14.4% |
| COC(=O)c1sccc1NC(=O)c1c(C)cc(=O)oc1C | inactive: -28.2% |
| Cc1ccc(C)c(S(=O)(=O)NCc2ccncc2)c1 | inactive: -24.3% |
| O=C(O)C1CCN(C(=O)OCc2ccccc2)CC1 | inconclusive: -66% |
| Cc1cc(C)cc(-c2nnc(SCC(=O)NCc3cccs3)o2)c1 | inconclusive: -70.5% |
| Cc1[nH]c2ccccc2c1N=Nc1ccccc1C(=O)O | inactive: -8.32% |
| O=C(NN1CCOCC1)c1cc(-c2ccc(Br)cc2)nc2ccccc12 | inconclusive: -42% |
| Cn1c(SCC(=O)N2c3ccccc3CCc3ccccc32)nnc1-c1ccc(O)cc1 | inconclusive: -76.2% |
| c1cncc(-c2noc(CC3CCCCC3)n2)c1 | inactive: 5.22% |
| CCC(=O)NCCc1c[nH]c2ccccc12 | inconclusive: -35.8% |
| CCCC/S(CC1CC1(Cl)Cl)=N\S(=O)(=O)c1ccc(C)cc1 (configuration not stated) | inactive: -7.7% |
| Cc1ccc(/C=C/C2=NN(Cc3ccccc3Cl)C(=O)CC2)cc1 | inconclusive: -74.1% |
| C#CCOCCOCCOCCNc1nc(N2CCOCC2)nc(N2CCN(C(=O)[C@H](C)n3cc(CCCN=C(N)N)nn3)CC2)n1 | inactive: 46.2% |
| CCOC(=O)C1CN(S(=O)(=O)c2ccccc2)C1 | inconclusive: -51.2% |
| COCCn1nnnc1CN1CCOCC1 | inactive: -11.5% |
| O=C(Nc1ccon1)c1cccc(S(=O)(=O)N2CCCC2)c1 | inconclusive: -42.7% |
| CCCNC(=O)CC1C(=O)N(Cc2ccccc2)C(C)c2nc3ccccc3n21 (configuration not stated) | inactive: 1.11% |
| NC1=NC(=O)/C(=C\c2cccs2)S1 | inactive: -12.6% |
| Cn1c(=O)c2c(nc(SCC(=O)Nc3ccccc3N3CCCCC3)n2C)n(C)c1=O | inactive: -26.8% |

| SMILES | activity change (PNC), negative = inhibition |
| --- | --- |
| CCOc1ccc(OCC)c(NC(=O)CN(c2ccc(C)cc2)S(=O)(=O)c2c(C)noc2C)c1 | inactive: 18.5% |
| COc1ccc(CNC(=O)C(CCSC)NC(=O)c2ccco2)cc1 (configuration not stated) | inconclusive: -34.6% |
| CC(=O)NC(CCS(C)(=O)=O)C(=O)Nc1cccc(C)c1 (configuration not stated) | inconclusive: -36% |
| Cc1cc(C(F)(F)F)nn1Cc1n[nH]c(=S)n1Cc1ccccc1 | active: -100% |
| O=C(Nc1ccccc1-c1ccccc1)NC1CCN(CC(=O)N2CCOCC2)CC1 | inconclusive: -40% |
| Cc1ccc(CN(CC2CCCO2)C(=O)CN2C(=O)C(C(C)C)Oc3ccccc32)o1 (configuration not stated) | inconclusive: -31.3% |
| Cc1ccccc1-n1c(C)n[nH]c1=S | inactive: 22.8% |
| CCc1nnc(NC(=O)Cn2nnc(-c3ccccc3F)n2)s1 | inconclusive: -69.1% |
| CCc1ccc(-c2csc3ncn(CC(=O)N4CCOCC4)c(=O)c23)cc1 | inactive: 18.9% |
| COc1ccccc1OCCC(=O)OCC(=O)NC(C)c1ccccc1 (configuration not stated) | active: -83.5% |
| CCOC(=O)CNC(=O)Nc1ccccc1C(=O)OC | inconclusive: -51% |
| Cn1c(-c2ccc(F)cc2)cnc1NCc1cccc(F)c1 | inactive: 65.1% |
| CCCCC/C=N\NC(=O)Cc1ccc([N+](=O)[O-])cc1 | active: -94.6% |
| CC(NC(=O)c1ccc(CS(=O)(=O)Cc2ccccc2F)o1)c1ccc2c(c1)OCCO2 (configuration not stated) | inconclusive: -31.3% |
| Cc1cccc(C)c1NC(=O)C(c1cccc([N+](=O)[O-])c1)N(C)C(=O)c1ccccn1 (configuration not stated) | inconclusive: -44.8% |
| COc1ccc(NC(=O)CSc2c3c(nc4ccccc24)CCCC3)c(OC)c1 | active: -113% |
| Cc1[nH]n(C(N)=S)c(=O)c1N=Nc1ccc(S(=O)(=O)N2CCCC2)cc1 | inactive: 7.46% |
| COc1ccc2c(c1)c(C(C)=O)c(C)n2-c1ccccc1 | inconclusive: -39.6% |
| Cc1nn(CC(C)C)c(=S)[nH]c1=O | active: -83.4% |
| CCOC(=O)C(Cc1ccc(NC(=O)/C(=C\c2ccccc2)NC(=O)c2ccccc2)cc1)N1C(=O)c2ccccc2C1=O (configuration not stated) | inactive: -2.44% |
| COc1ccc(S(=O)(=O)N(CC(=O)NCc2ccco2)c2ccccc2)cc1OC | inconclusive: -43.2% |
| Cc1cc(C)c2nc(-c3ccccn3)cc(C(=O)Nc3cc(C)on3)c2c1 | active: -86.5% |
| Cn1c(SCc2c(Cl)cccc2Cl)nc(C(F)(F)F)cc1=O | inconclusive: -43.8% |

| SMILES | activity change (PNC), negative = inhibition |
| --- | --- |
| CC(=O)c1cccc(NC(=O)C(OC(=O)/C=C/c2ccc3c(c2)OCO3)c2ccccc2)c1 (configuration not stated) | inconclusive: -41.1% |
| COCC(C)OC(=O)C(C#N)c1nc2ccccc2nc1N1CCN(Cc2ccccc2)CC1 (configuration not stated) | inactive: 7.73% |
| Cn1ncc2c(=O)n(/N=C/c3ccccc3)cnc21 | inconclusive: -78.6% |
| CCOc1cc(/C=N/NC(=O)CNc2cccc(C)c2)ccc1OC(=O)c1ccccc1 | inconclusive: -32.8% |
| CCOc1cc(/C=C/c2ccc3cccc([N+](=O)[O-])c3n2)cc(Cl)c1O | inconclusive: -31.2% |
| O=C(NCc1ccc(F)cc1)c1cc2c(s1)CCCC2 | inconclusive: -40.5% |
| O=C(O)CC1SC(=Nc2ccccc2)N(c2ccccc2)C1=O (configuration not stated) | inconclusive: -54.6% |
| COc1ccc(/C=C/C(=O)NC(=S)NNC(=O)Cc2cccs2)cc1OC | inconclusive: -73.7% |
| O=C(COC(=O)c1ccc(S(=O)(=O)N2CCOCC2)cc1)NC1CCCCCC1 | inconclusive: -38.7% |
| Cc1cc(C)n(-c2nnc3n2N=C(c2c[nH]c4ccccc24)CS3)n1 | inactive: -11.6% |
| Cc1cccc(C)c1-n1c(C)cc(/C=N/NC(=O)CSc2ncccn2)c1C | inactive: -14.7% |
| COc1ccc(OC)c(-c2cc(C(=O)Nc3cc(C)n(Cc4ccc(Cl)cc4)n3)no2)c1 | inconclusive: -47.3% |
| CC(C)COc1cccc(C(=O)NC(=S)NCc2cccnc2)c1 | inactive: -1.32% |
| CC(=O)N1CCN(C(=S)c2cccc([N+](=O)[O-])c2)CC1 | inactive: 3.98% |
| CCOc1ccc(/C=N/NC(=O)Cc2csc(Nc3cccc(C(F)(F)F)c3)n2)c(OCC)c1 | inconclusive: -52.6% |
| CC(=O)c1cccc(N(CC(=O)N2CCCCC2)S(C)(=O)=O)c1 | inconclusive: -55.1% |
| COCCNC(=O)C(C)OC(=O)c1nsc(Cl)c1Cl (configuration not stated) | inactive: 21.3% |
| Cc1cccc(C)c1NC(=O)CN1C(=O)S/C(=C\c2cccn2C)C1=O | inconclusive: -37.1% |
| COc1cccc(NC2=CC(=O)CC(C)(C)C2)c1 | inactive: -7.98% |
| CC1(C)CC(=O)c2sc(NS(C)(=O)=O)nc2C1 | inactive: -18.8% |
| Oc1c(I)cc(Cl)c2cccnc12 | inconclusive: -51.7% |
| CCOc1ccc(/C=N/O)cc1 | inconclusive: -30.3% |
| CC(C)CCNC(=S)Nc1ccccn1 | inconclusive: -45.6% |

A draw from above in order of count of non-hydrogen atoms, ascending:

| SMILES | activity change (PNC), negative = inhibition |
| --- | --- |
| CCOC(=O)CNC(=O)Nc1ccccc1C(=O)OC | inconclusive: -51% |
| Cc1c2cnn(CC(=O)O)c(=O)c2c(C)n1Cc1ccccc1 | inconclusive: -58% |
| Cn1c(=O)c2c(nc(SCC(=O)Nc3ccccc3N3CCCCC3)n2C)n(C)c1=O | inactive: -26.8% |
| Cc1cc(/C=C(\C#N)C(=O)Nc2ccc(Cl)cc2)c(C)n1-c1ccc(N2CCOCC2)c([N+](=O)[O-])c1 | inconclusive: -50.4% |
